Data published in article PMC11785871, “D-Serine disrupts Cbln1 and GluD1 interaction and affects Cbln1-dependent synaptic effects and nocifensive responses in the central amygdala” (Cellular and Molecular Life Sciences: CMLS, 2025).
No constants are given. Whether binding was seen depends on the method and setting. Some binding calls cover weakened binding; strength is not graded here.

Amino acid sequences for entries named in this document (tags omitted). Residues count along the entry.
UniProt P23435, residues 22-193: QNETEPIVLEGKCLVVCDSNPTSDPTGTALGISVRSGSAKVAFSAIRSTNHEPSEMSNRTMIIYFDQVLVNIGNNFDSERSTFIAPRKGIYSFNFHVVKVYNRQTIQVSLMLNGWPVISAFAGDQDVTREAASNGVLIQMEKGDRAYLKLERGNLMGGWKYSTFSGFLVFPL

Molecular target: T1, GluD1 (wild type) overexpressed in HEK293T cells (rat) (UniProt Q62640)
T1 sequence: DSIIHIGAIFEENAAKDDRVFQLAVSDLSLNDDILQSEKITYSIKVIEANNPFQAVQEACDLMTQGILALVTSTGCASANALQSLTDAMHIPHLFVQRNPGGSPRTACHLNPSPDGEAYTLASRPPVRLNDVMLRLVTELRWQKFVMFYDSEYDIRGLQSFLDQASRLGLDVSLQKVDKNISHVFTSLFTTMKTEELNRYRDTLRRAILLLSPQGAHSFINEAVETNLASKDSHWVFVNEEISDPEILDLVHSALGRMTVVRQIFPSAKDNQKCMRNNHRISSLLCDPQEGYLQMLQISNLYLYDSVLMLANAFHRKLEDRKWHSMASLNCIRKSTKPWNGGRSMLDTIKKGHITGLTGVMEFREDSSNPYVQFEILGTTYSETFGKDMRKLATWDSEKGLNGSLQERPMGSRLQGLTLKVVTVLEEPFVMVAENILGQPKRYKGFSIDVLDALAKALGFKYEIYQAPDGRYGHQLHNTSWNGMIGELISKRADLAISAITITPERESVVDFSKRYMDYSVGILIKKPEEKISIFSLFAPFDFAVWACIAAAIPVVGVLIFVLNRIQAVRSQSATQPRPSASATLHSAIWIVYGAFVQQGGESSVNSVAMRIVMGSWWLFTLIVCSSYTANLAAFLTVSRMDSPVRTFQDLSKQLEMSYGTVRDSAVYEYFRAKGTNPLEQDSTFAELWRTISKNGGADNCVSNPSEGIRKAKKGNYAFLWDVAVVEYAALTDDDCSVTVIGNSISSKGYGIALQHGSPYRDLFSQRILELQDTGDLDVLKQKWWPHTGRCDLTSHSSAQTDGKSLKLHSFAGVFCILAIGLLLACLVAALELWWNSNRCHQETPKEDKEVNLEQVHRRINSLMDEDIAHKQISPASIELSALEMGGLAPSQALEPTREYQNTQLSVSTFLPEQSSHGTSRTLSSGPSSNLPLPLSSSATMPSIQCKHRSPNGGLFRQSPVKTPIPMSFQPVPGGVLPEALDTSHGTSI
Experiment: cell binding followed by immunoblotting; HEK293T cells transfected with GluD1, 48 h later D-serine (0.3 mM) or vehicle for 30 min, then recombinant Cbln1 1 ug/ml with D-serine or vehicle for 4 h; rinsed thrice with PBS, lysate on SDS-PAGE, blot with anti-His and anti-GluD1; only the binder purified

binding: binds
Substance: recombinant Cbln1 protein (HA- and His-tagged) (from UniProt P23435 22-193) (ligand)
